Each structure is given as a SMILES string. Structures can show the parent of a compound that is named as a salt. The list shows a part of the results. The calls rarely recur for the same compound in another form.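 In K562 cells expressing nanoluciferase-fused kinases, luminescence was recorded at 4 h intervals between 2 and 18 h, normalized as percent of control with DMSO at 100% and a positive control at 0%. A significant (2 sigma) signal drop marks a time point as decreased. The authors' rule for a hit is not shown and takes in more than the number of time points.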

The test addresses MAP2K1 (UniProt Q02750). The test is described as follows: number of time points (of 5) at which kinase-Nluc abundance scored as decreased, DMSO-normalised (count); higher = more persistent destabilization. The settings on record: K562; 2-18 h.
Regarding `C=C(CCC=C(C)C)[C@H]1CC[C@]2(C)[C@@H]1[C@H](O)C[C@@H]1[C@@]3(C)CC[C@H](O[C@@H]4O[C@H](CO)[C@@H](O)[C@H](O)[C@H]4O[C@@H]4O[C@H](CO)[C@@H](O)[C@H](O)[C@H]4O)C(C)(C)[C@@H]3CC[C@]12C` [Ginsenoside Rk1] (10 µM), the “number of time points” value came to 0.
Next, `CCn1c(=O)c(-c2ccc(-c3cncs3)cc2Cl)cc2cnc(Nc3ccc(N4CCN(C)CC4)cc3)nc21` (2.5 µM): 0.
The value for `Nc1nccc(Oc2ccc(NC(=O)c3cn(COP(=O)(O)O)cc(-c4ccc(F)cc4)c3=O)cc2F)c1Cl` (10 µM) was 0; that for `Cc1cc(-c2cc(OC(=O)c3ccccc3)ccc2Cl)cc2nnc(Nc3ccc(OCCN4CCCC4)cc3)nc12` (0.5 µM) was 0.
The value for `OC[C@H]1O[C@@H](Oc2cc3c(O)cc(O)cc3[o+]c2-c2cc(O)c(O)c(O)c2)[C@H](O)[C@@H](O)[C@@H]1O` [Delphinidin 3-glucoside (chloride)] (10 µM) was 0; that for `O=C(/C=C/c1ccc(O)c(O)c1)c1ccc(O[C@@H]2O[C@H](CO)[C@@H](O)[C@H](O)[C@H]2O)c(O)c1O` [Marein] (10 µM) was 0; that for `O=C1Nc2nc(-c3c(O)cccc3OCC3CC3)cc([C@@H]3CCCNC3)c2CO1` [Bay 65-1942 (hydrochloride)] (10 µM) was 0.
Take `CC(C)CN(CC(=O)N1CCN(CC(OCc2ccc3ccccc3c2)c2ccc(Cl)cc2Cl)CC1)CC(C)C` (centres undefined) [LYN-1604 (dihydrochloride)] (2.5 µM): the “number of time points” value is 0.
In the case of `CCc1cc(O)c(F)cc1-c1ccc2c(-c3nc4c([nH]3)CN(C3CCN(C)CC3)CC4)n[nH]c2c1` [JAK-IN-5 (hydrochloride)] (2 µM), the “number of time points” value was 0.
On to `Cc1ccc(Nc2cc(-c3cccc(N4C(=O)c5ccccc5C4=O)c3)ncn2)cc1NS(C)(=O)=O` (10 µM), for which the “number of time points” value was found to be 0.
Turning to `C=C1C(=O)O[C@@H]2C[C@@]3(C)CCC[C@H](C)C3=C[C@H]12` [Alantolactone] (10 µM), the “number of time points” value turned out to be 0.
The value for `C=C(C)C(=O)Nc1cccc(-c2ncnc3[nH]cc(C(=O)OCC)c23)c1` (10 µM) was 0.
For the molecule `CNc1nc(Nc2cnn(C3CCN(C4COC4)CC3F)c2Cl)ncc1C(F)(F)F` (centres undefined) (10 µM), the “number of time points” value came out at 0.
Next, `Cc1cc(Nc2cc(Cl)nc(Oc3ccc([N+](=O)[O-])cc3)n2)n[nH]1` [Autophinib] (2.5 µM): 0; `CC(C)=CC[C@H](O)C1=CC(=O)c2c(O)ccc(O)c2C1=O` [(-)-Alkannin] (2.5 µM): 0; `CNCc1ccccc1-c1csc([C@@H](C)Nc2nc(C)nc3cc(OC)c(OC)cc23)c1` (2.5 µM): 0.
In the case of `COc1ncc(-c2nc(N3CCOCC3)nc3c(CN4CCC(C(C)(C)O)CC4)cc(F)cc23)cc1NS(C)(=O)=O` [Linperlisib] (10 µM), the “number of time points” value was 0.
As to `O=C(Nc1ccc(F)cc1F)[C@H](NC(=S)Nc1cc(C(F)(F)F)cc(C(F)(F)F)c1)c1ccccc1` (2.5 µM), the “number of time points” value came to 0.
Take `O=C1NC(=O)C(=Cc2ccc(-c3ccc(F)cc3)o2)S1` (stereo in doubt) (10 µM): the “number of time points” value was determined as 0.
Next, `CCOc1cc(C(=O)N2CCC(N3CCN(C)CC3)CC2)ccc1Nc1ncc2c(n1)N(C1CCCC1)c1ccccc1C(=O)N2C` (10 µM): 0; `OC(COc1ccc(C(F)(F)F)cc1)CN(Cc1ccccc1)Cc1ccccc1` (centres undefined) (2.5 µM): 0.
Next, `C[C@@H]1C(=O)O[C@H](C)[C@H]1C[C@@H](O)[C@](C)(O)[C@H]1CC[C@@]2(O)C3=CC(=O)[C@@H]4C[C@@H](O)[C@@H](O)C[C@]4(C)[C@H]3CC[C@]12C` [Cyasterone] (10 µM): 0.
The value for `Cc1c(CN2CCN(C(=O)[C@H](C)O)CC2)sc2c(N3CCOCC3)nc(-c3cnc(N)nc3)nc12` [Apitolisib] (10 µM) was 0; that for `CC(C)(C)NC(=O)c1cncn1C1CCN(c2ccc(-c3nnc(C(F)(F)F)o3)cn2)CC1` (10 µM) was 0; that for `NCc1ccc(Nc2ncc(F)c(Nc3ccccc3)n2)cc1` (10 µM) was 0.
On to `COC1(c2sc3c(N4CCOCC4)nc(-c4cnc(N)nc4)nc3c2C)COC1` (2.5 µM), for which the “number of time points” value came out at 0.
Next, `COc1cc2c[n+](C)c3c4cc5c(cc4ccc3c2cc1OC)OCO5` [Nitidine (chloride)] (2 µM): 0; `N#Cc1ccc2ncnc(NC3CCC(N4CCOCC4)CC3)c2c1` (centres undefined) (10 µM): 0; `COc1ccc2c(c1O)OC(C)(C)c1c-2ccc2c1C(=O)N(c1ccc(C(=O)c3ccccc3)cc1)C2=O` [Ampkinone] (10 µM): 0.
Regarding `CC1=C2C(=O)O[C@@H](c3ccoc3)[C@]2(C)CCC1` [Fraxinellone] (10 µM), the “number of time points” value is 0.
Turning to `CS(=O)(=O)c1ccc(-c2cnc(N)c(C(=O)Nc3ccccc3)n2)cc1` (10 µM), the “number of time points” value stood at 0.
As to `O=C(NC(NC(=S)Nc1ccc(F)c([N+](=O)[O-])c1)C(Cl)(Cl)Cl)C(c1ccccc1)c1ccccc1` (centres undefined) (10 µM), the “number of time points” value came to 0.
The value for `COc1cc(C(N)=O)nc(-c2cccc(C#C[C@]3(O)CCN(C)C3=O)c2)c1` (10 µM) was 0; that for `O=C(Nc1cc(Oc2cc(F)c(NC(=O)C3(C(=O)Nc4ccc(F)cc4)CC3)cc2F)ccn1)C1CC1` [Altiratinib] (10 µM) was 0.
The value for `COc1ccc(Cl)cc1NC(=O)Nc1cc(C)nc2ccccc12` (2.5 µM) was 0; that for `COc1ccc(CC(=O)Nc2nc3c(s2)CCc2ccccc2-3)cc1OC` (10 µM) was 0.
With `N[C@H](Cc1c[nH]c2ccccc12)C(=O)N/N=C/c1ccc2nccnc2c1` [Rhosin (hydrochloride)] (10 µM), the “number of time points” value is 0.
The value for `CC(C)(C)c1ccc(S(=O)(=O)Nc2ccc(-n3ccnc3)cc2)cc1` (10 µM) was 0; that for `Cc1ccc(-c2c(C(=O)CF)n(CCCO)c3ncnc(N)c23)cc1` (10 µM) was 0.
